Test results reported in PubChem BioAssay AID977627 (Broad Institute, 2014).
Some of the results follow. These are further read-outs of the screen, such as a control signal, another cell line or another target. No call is given for them.

assay: E. coli strain growth, wild-type against H38 humanized mutant – H38 mutant GFP vs wild-type RFP, cherry-pick, dose response (AID 977627); settings: E. coli H38 humanized ribosome GFP strain, fluorescence, 24 h; measured here: wild-type RFP strain growth; at 50 µM; stronger effect = lower value

Row | Structure (SMILES) | activity [%]
1 | COc1ccc(Nc2oc(-c3ccco3)nc2S(=O)(=O)c2ccc(F)cc2)cc1 | -5.15
2 | CSc1nc(N)nc(SC2C=CCCC2)c1C#N (stereo not drawn) | -53.1
3 | Cc1cc(C)c(C#N)c(N2CCN(c3ccccc3)CC2)n1 | -58.4
4 | CCOC(=O)c1c(NC(=O)Cc2cccs2)sc(C)c1C | -80.6
5 | CC[C@H]1OC(=O)[C@H](C)[C@@H](O[C@H]2C[C@@](C)(OC)[C@@H](O)[C@H](C)O2)[C@H](C)[C@@H](O[C@@H]2O[C@H](C)C[C@H](N(C)C)[C@H]2O)[C@](C)(O)C[C@@H](C)[C@@H]2N[C@@H](COCCOC)O[C@H]([C@H]2C)[C@]1(C)O | -79.1
6 | COc1ccc(Cn2c(-c3ccc(Cl)cc3)c[n+]3ccccc23)cc1 | -67.6
7 | Cc1c(C(=O)O)sc2nc(CSc3ncc(C(F)(F)F)cc3Cl)[nH]c(=O)c12 | -84.8
8 | CC(CNc1ccc(Cl)cc1)(CNc1ccc(Cl)cc1)[N+](=O)[O-] | -32
9 | C[C@@H]1CCCCO[C@H](CN(C)CC2CC2)[C@H](C)CN([C@@H](C)CO)C(=O)c2cc(NC(=O)Nc3cccc4ccccc34)ccc2O1 | -95.9
10 | CCn1c(-c2cc(-c3ccc(OC(C)C)cc3)nc3ccccc23)n[nH]c1=S | -25.6
11 | COc1ccc2[nH]c3c(=O)n(CCCCC(=O)NCCC(C)C)c(=S)[nH]c3c2c1 | -6.76
12 | COc1cccc(C(=O)Nc2cc(C)nn2-c2ccccc2)c1OC | -78.5
13 | CCN(CC)CCn1c2ccccc2c2nc3ccc([N+](=O)[O-])cc3cc21 | -15.8
14 | C=CCNC(=O)c1ccccc1NC(=O)c1ccc(Cl)c(S(=O)(=O)Nc2cccc(C)c2C)c1 | -60.6
15 | Cc1[nH]c(=S)sc1Cc1ccc(Cl)c(Cl)c1 | -28.2
16 | COc1ccc(NC(=O)c2ccc(-c3ccc([N+](=O)[O-])cc3)o2)cc1 | -38.3
17 | Cc1ccc(C)c(NC(=O)CSc2nc3nc(-c4cccs4)cc(C(F)(F)F)c3c(=O)[nH]2)c1 | -51
18 | O=C(O)c1cc([N+](=O)[O-])ccc1NCc1ccccc1 | -38.6
19 | COc1ccc(-n2cc(-c3ccccc3)c3c(N4CCOCC4)ncnc32)cc1 | -81.3
20 | COc1cc2c(cc1[N+](=O)[O-])-c1ccc([N+](=O)[O-])cc1C2 | -2.43
21 | Cc1ccc(S(=O)(=O)N2CC[C@H]3[C@H](CO)Nc4ccc(Br)cc4[C@H]32)cc1 | -85.3
22 | C[C@@H]1CCCCO[C@H](CN(C)C(=O)CCCN(C)C)[C@H](C)CN([C@@H](C)CO)C(=O)c2cc(NC(=O)Nc3cccc4ccccc34)ccc2O1 | -44.9
23 | Cc1cc(C)c(OCCNC(=O)c2ccccc2Sc2ccccc2C#N)c(C)c1 | -23.3

As a working copy, some entries already given.
Row | Structure (SMILES) | activity [%]
10 | CCn1c(-c2cc(-c3ccc(OC(C)C)cc3)nc3ccccc23)n[nH]c1=S | -25.6
11 | COc1ccc2[nH]c3c(=O)n(CCCCC(=O)NCCC(C)C)c(=S)[nH]c3c2c1 | -6.76
